{"source": "PubChem BioAssay AID1487", "about": "(National Center for Advancing Translational Sciences (NCATS), 2009)", "test": "qHTS Assay for Modulators of Lamin A Splicing", "conditions": "HeLa LMNA splicing GFP/RFP minigene ratio, 48 h", "procedure,_shortened": "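S3 HeLa cells stably expressing lamin A-EGFP splicing minigene plus DsRed2, 600 cells/well, 48 h compound exposure at 37C. Laser-scanning cytometry; analysed as GFP (500-530 nm)/RFP (575-640 nm) total intensity ratio; 0.5% DMSO vehicle.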", "key": {"[1]": {"conditions": "measured here: GFP splicing reporter channel"}, "[2]": {"conditions": "measured here: RFP viability control channel"}}, "note": "The other results are listed elsewhere or left out. The main result of the screen is listed elsewhere. These columns were measured beside it and carry no call. The list favours compounds with an active or inconclusive main result. The note in brackets gives the kind of curve behind each potency; many fits are weak.", "data": [{"smiles": "COc1c(F)c(F)c(C(=O)Nc2ccc(-c3nc4ccccc4[nH]3)cc2)c(F)c1F", "values": [{"measurement": "AC50", "setting": "[1]", "value": "0.02 µM [falling, full curve, poor fit]"}]}, {"smiles": "Cc1ccc(N=C2NC(=O)/C(=C/c3cccs3)S2)cc1C", "values": [{"measurement": "AC50", "setting": "[1]", "value": "0.0316 µM [rising, full curve, poor fit]"}]}, {"smiles": "CCCOC(=O)CSC1=C(C#N)C(c2ccccc2Cl)CC(=O)N1", "note": "(configuration not stated)", "values": [{"measurement": "AC50", "setting": "[2]", "value": "35.5 µM [rising, single point]"}]}, {"smiles": "Cc1nn(Cc2ccccc2)c(C)c1NC(=O)CSc1nc2c(c(C(F)(F)F)n1)CCc1ccccc1-2", "values": [{"measurement": "AC50", "setting": "[2]", "value": "12.6 µM [rising, single point]"}]}, {"smiles": "CCN(CC)S(=O)(=O)c1ccc(N(C)Cc2ccc(C(F)(F)F)cc2)nc1", "values": [{"measurement": "AC50", "setting": "[1]", "value": "12.6 µM [rising, single point]"}, {"measurement": "AC50", "setting": "[2]", "value": "15.8 µM [rising, single point]"}]}, {"smiles": "CC[N+](C)(CC)CCOC(=O)C1c2ccccc2Oc2ccccc21", "values": [{"measurement": "AC50", "setting": "[2]", "value": "3.98 µM [falling, partial curve, poor fit]"}]}, {"smiles": "COc1cc(NC(=O)Cc2nn(C)c(=O)c3ccccc23)cc(OC)c1OC", "values": [{"measurement": "AC50", "setting": "[2]", "value": "17.8 µM [rising, partial curve]"}]}, {"smiles": "COc1ccccc1C/C(N)=N/O", "values": [{"measurement": "AC50", "setting": "[2]", "value": "3.98 µM [falling, full curve, poor fit]"}]}, {"smiles": "CC(C)Cn1c2c(c(O)c(C(=O)Nc3nccs3)c1=O)CCCC2", "values": [{"measurement": "AC50", "setting": "[2]", "value": "10 µM [rising, single point]"}]}, {"smiles": "c1ccc(Nc2nc(-c3cccnc3)nc3ccccc23)cc1", "values": [{"measurement": "AC50", "setting": "[1]", "value": "12.6 µM [falling, single point]"}, {"measurement": "AC50", "setting": "[2]", "value": "22.4 µM [falling, single point]"}]}, {"smiles": "O=C(Nc1cccc(C(F)(F)F)c1)OCCN1CCN(Cc2ccccc2)CCC1=O", "values": [{"measurement": "AC50", "setting": "[1]", "value": "25.1 µM [rising, single point]"}, {"measurement": "AC50", "setting": "[2]", "value": "35.5 µM [rising, single point]"}]}, {"smiles": "Cc1ccc(C(=O)c2ccc(CC(=O)O)n2C)cc1", "values": [{"measurement": "AC50", "setting": "[1]", "value": "0.00178 µM [falling, full curve, poor fit]"}]}, {"smiles": "Cc1nc(N2CCN(Cc3ccc4c(c3)OCO4)CC2)nc2c1C(=O)CC(c1ccco1)C2", "note": "(configuration not stated)", "values": [{"measurement": "AC50", "setting": "[1]", "value": "8.91 µM [rising, partial curve, poor fit]"}, {"measurement": "AC50", "setting": "[2]", "value": "14.1 µM [rising, partial curve]"}]}, {"smiles": "Cc1cc(=O)n(CC(=O)Nc2ccc([N+](=O)[O-])cc2)c(-n2nc(C)cc2C)n1", "values": [{"measurement": "AC50", "setting": "[2]", "value": "35.5 µM [falling, partial curve, poor fit]"}]}, {"smiles": "Cc1cc(C)c(S(=O)(=O)N2CCCCC2)c(C)c1N(C)S(=O)(=O)c1ccc(Cl)cc1", "values": [{"measurement": "AC50", "setting": "[1]", "value": "35.5 µM [rising, single point]"}, {"measurement": "AC50", "setting": "[2]", "value": "35.5 µM [rising, single point]"}]}, {"smiles": "CCCCN(CCCC)CCCOC(=O)c1ccc(N)cc1", "values": [{"measurement": "AC50", "setting": "[1]", "value": "0.501 µM [falling, partial curve]"}, {"measurement": "AC50", "setting": "[2]", "value": "0.501 µM [falling, full curve]"}]}, {"smiles": "CCc1cc(C(=O)NNC(=S)Nc2ccccc2C)cs1", "values": [{"measurement": "AC50", "setting": "[2]", "value": "31.6 µM [rising, single point]"}]}, {"smiles": "CC(=O)Nc1cc2c(cc1NC(=O)Cn1nc(-c3ccccc3F)ccc1=O)OCCO2", "values": [{"measurement": "AC50", "setting": "[1]", "value": "8.91 µM [rising, partial curve]"}, {"measurement": "AC50", "setting": "[2]", "value": "11.2 µM [rising, partial curve, poor fit]"}]}, {"smiles": "CN(C)c1ccc(-c2nccc(Nc3ccc(F)cc3)n2)cc1", "values": [{"measurement": "AC50", "setting": "[1]", "value": "11.2 µM [falling, partial curve]"}, {"measurement": "AC50", "setting": "[2]", "value": "17.8 µM [falling, partial curve]"}]}, {"smiles": "Brc1ccc(C=Nc2ccc(Nc3ccccc3)cc2)s1", "values": [{"measurement": "AC50", "setting": "[2]", "value": "14.1 µM [rising, partial curve]"}]}, {"smiles": "O=C(N/N=C/C1CC2CCC1C2)c1c[nH]c2ccccc12", "note": "(configuration not stated)", "values": [{"measurement": "AC50", "setting": "[1]", "value": "0.0316 µM [falling, full curve, poor fit]"}, {"measurement": "AC50", "setting": "[2]", "value": "0.0316 µM [falling, full curve, poor fit]"}]}, {"smiles": "O=C(Nc1cccc([N+](=O)[O-])c1)c1ccc2nc(N3C(=O)CCC3=O)sc2c1", "values": [{"measurement": "AC50", "setting": "[1]", "value": "35.5 µM [falling, single point]"}, {"measurement": "AC50", "setting": "[2]", "value": "35.5 µM [falling, single point]"}]}, {"smiles": "CS(=O)(=O)NN1C(=O)c2ccccc2NC12CCCC2", "values": [{"measurement": "AC50", "setting": "[1]", "value": "0.282 µM [falling, full curve, poor fit]"}, {"measurement": "AC50", "setting": "[2]", "value": "0.0126 µM [falling, full curve, poor fit]"}]}, {"smiles": "COc1ccccc1NC(=O)c1ccc(NC(=O)COC(=O)CCC2CCCC2)cc1", "values": [{"measurement": "AC50", "setting": "[1]", "value": "0.0251 µM [falling, full curve, poor fit]"}, {"measurement": "AC50", "setting": "[2]", "value": "0.2 µM [falling, full curve, poor fit]"}]}, {"smiles": "CCNc1nc(NCC)nc(SCCOc2ccc(C)cc2)n1", "values": [{"measurement": "AC50", "setting": "[1]", "value": "14.1 µM [rising, partial curve]"}, {"measurement": "AC50", "setting": "[2]", "value": "15.8 µM [rising, partial curve]"}]}, {"smiles": "CCOC(=O)N1CCC(NC(=O)CS(=O)(=O)Cc2nc(-c3ccccc3C)oc2C)CC1", "values": [{"measurement": "AC50", "setting": "[1]", "value": "17.8 µM [rising, single point]"}, {"measurement": "AC50", "setting": "[2]", "value": "35.5 µM [rising, single point]"}]}, {"smiles": "O=C(NC1CCCCCCC1)c1ccccc1-c1ccccc1", "values": [{"measurement": "AC50", "setting": "[1]", "value": "22.4 µM [rising, partial curve, poor fit]"}, {"measurement": "AC50", "setting": "[2]", "value": "35.5 µM [rising, single point]"}]}, {"smiles": "O=C(c1ccccc1Br)N1CCN(c2ccccc2)CC1", "values": [{"measurement": "AC50", "setting": "[1]", "value": "22.4 µM [falling, single point]"}, {"measurement": "AC50", "setting": "[2]", "value": "35.5 µM [falling, single point]"}]}, {"smiles": "O=C(NC1CCCCC1)N1CCSC1=Nc1ccccc1", "values": [{"measurement": "AC50", "setting": "[2]", "value": "14.1 µM [rising, single point]"}]}, {"smiles": "CCN(CC)S(=O)(=O)c1cc(NC(=O)COc2ccc(C#N)cc2OC)ccc1C", "values": [{"measurement": "AC50", "setting": "[1]", "value": "20 µM [rising, single point]"}, {"measurement": "AC50", "setting": "[2]", "value": "22.4 µM [rising, partial curve]"}]}, {"smiles": "Cc1ccc(N(C)S(=O)(=O)c2ccc3[nH]c4c(c3c2)CCCC4)cc1", "values": [{"measurement": "AC50", "setting": "[2]", "value": "11.2 µM [rising, partial curve, poor fit]"}]}, {"smiles": "Cc1ccc(CN/C=C/C(=O)c2ccc(Br)cc2)cc1", "values": [{"measurement": "AC50", "setting": "[1]", "value": "10 µM [rising, partial curve]"}, {"measurement": "AC50", "setting": "[2]", "value": "12.6 µM [rising, single point]"}]}, {"smiles": "O=C(COc1ccccc1)NCc1ccc2c(c1)CCN2C(=O)c1ccccc1", "values": [{"measurement": "AC50", "setting": "[1]", "value": "10 µM [rising, single point]"}, {"measurement": "AC50", "setting": "[2]", "value": "10 µM [rising, partial curve]"}]}]}
